In PMC8199199:
Results are given in words; binding and its absence hold for the method and conditions named. Binding seen in cells or lysates may run through a third protein. Some results given as binding are weak or reduced against the parent protein; the word gives no strength.

Amino acid sequences for entries named in this document (tags omitted).
UniProt P03372: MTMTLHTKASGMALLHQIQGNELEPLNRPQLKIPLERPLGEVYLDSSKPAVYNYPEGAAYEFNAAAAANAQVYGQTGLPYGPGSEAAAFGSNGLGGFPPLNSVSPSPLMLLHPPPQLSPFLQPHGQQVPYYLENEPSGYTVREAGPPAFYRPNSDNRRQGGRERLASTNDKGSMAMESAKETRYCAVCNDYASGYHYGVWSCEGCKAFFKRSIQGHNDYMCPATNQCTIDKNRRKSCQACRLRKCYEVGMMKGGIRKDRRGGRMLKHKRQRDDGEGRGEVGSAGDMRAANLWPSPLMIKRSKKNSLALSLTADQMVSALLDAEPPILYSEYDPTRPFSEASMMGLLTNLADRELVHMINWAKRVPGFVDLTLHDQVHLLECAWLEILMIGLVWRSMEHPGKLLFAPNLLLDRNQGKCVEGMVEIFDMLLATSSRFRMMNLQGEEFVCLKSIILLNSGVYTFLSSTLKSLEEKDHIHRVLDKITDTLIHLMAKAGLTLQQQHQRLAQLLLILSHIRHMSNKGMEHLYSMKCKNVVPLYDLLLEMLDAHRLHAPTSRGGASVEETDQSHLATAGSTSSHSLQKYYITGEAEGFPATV
UniProt O75376: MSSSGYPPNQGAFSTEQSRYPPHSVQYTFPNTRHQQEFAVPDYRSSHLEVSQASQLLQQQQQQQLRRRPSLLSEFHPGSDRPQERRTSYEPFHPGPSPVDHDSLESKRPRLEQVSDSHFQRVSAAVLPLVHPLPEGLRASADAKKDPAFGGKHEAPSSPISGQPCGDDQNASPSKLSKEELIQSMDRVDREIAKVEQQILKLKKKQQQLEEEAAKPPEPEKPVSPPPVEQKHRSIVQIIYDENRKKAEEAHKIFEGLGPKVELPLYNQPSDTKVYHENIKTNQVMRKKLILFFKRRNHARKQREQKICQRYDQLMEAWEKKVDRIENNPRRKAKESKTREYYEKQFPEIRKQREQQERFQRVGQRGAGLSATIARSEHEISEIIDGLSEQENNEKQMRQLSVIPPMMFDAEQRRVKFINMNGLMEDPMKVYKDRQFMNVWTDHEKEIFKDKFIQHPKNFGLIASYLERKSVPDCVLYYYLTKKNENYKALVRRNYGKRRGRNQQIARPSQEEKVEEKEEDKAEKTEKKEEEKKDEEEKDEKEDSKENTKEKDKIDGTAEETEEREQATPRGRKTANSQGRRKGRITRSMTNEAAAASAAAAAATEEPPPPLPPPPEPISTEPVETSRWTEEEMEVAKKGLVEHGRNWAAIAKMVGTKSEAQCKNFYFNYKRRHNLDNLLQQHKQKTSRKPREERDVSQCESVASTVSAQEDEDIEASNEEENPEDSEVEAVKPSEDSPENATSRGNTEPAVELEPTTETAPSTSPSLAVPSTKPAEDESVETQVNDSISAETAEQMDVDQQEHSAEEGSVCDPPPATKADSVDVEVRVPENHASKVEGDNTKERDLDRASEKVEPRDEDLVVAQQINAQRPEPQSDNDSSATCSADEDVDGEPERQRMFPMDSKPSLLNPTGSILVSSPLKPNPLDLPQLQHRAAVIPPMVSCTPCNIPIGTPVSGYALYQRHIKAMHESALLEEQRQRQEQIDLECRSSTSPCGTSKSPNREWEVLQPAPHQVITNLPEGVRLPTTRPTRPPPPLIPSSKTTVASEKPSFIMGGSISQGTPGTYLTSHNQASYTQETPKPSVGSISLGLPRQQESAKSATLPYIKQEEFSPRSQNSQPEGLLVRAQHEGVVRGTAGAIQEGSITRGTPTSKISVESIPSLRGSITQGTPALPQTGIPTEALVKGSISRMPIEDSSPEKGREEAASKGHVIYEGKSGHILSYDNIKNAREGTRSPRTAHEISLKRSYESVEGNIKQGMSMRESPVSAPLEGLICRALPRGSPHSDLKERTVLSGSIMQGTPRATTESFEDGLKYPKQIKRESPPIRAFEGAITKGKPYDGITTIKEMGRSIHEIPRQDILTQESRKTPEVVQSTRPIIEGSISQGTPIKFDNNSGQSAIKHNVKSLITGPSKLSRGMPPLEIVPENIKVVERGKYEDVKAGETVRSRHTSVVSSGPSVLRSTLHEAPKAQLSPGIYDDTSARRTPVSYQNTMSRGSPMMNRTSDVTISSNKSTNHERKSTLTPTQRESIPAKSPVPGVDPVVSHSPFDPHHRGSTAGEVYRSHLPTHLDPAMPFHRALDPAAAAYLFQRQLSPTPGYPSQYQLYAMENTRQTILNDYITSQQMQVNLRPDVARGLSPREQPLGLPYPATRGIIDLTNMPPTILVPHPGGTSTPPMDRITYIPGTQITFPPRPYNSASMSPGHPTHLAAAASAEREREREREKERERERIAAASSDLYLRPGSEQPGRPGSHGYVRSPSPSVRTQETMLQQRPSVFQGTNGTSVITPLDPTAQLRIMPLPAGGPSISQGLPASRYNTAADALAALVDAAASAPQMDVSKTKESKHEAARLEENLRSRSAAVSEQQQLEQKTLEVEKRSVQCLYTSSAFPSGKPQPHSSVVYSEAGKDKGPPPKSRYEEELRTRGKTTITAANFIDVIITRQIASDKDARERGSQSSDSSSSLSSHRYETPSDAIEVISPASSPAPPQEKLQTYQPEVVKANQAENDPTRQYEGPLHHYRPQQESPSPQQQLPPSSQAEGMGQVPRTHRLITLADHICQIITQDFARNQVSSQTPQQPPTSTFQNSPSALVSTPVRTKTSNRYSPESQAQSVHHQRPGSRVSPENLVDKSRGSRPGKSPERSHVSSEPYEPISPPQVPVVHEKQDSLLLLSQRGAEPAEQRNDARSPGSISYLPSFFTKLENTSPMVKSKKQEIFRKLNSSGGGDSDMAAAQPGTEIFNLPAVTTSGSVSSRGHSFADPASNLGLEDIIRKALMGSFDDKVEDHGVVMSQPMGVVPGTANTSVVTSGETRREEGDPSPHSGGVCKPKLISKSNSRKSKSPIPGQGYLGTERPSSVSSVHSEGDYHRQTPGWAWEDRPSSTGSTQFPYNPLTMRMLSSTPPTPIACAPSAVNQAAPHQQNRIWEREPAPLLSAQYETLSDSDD

What was measured:
[1] = biological target: estrogen receptor α (human (endogenous in MCF7)) (UniProt P03372); experiment: co-IP; immunoprecipitation with an anti-ERα antibody from MCF7 cell lysates, cells treated with TNFα; immunoblot with the indicated antibodies
[2] = biological target: estrogen receptor α (human (endogenous in MCF7)) (UniProt P03372); experiment: co-IP; immunoprecipitation with an anti-ERα antibody from MCF7 cell lysates, cells without TNFα treatment; immunoblot with the indicated antibodies

binding [2]: binds
Substance: nuclear receptor corepressor 1 (from UniProt O75376 1-2440)
binding [1]: no binding (condition: cells treated with TNFα)
